# Reference: paper PMC9935549
# Amino acid sequences for entries named in this document (tags omitted).
# UniProt O75533: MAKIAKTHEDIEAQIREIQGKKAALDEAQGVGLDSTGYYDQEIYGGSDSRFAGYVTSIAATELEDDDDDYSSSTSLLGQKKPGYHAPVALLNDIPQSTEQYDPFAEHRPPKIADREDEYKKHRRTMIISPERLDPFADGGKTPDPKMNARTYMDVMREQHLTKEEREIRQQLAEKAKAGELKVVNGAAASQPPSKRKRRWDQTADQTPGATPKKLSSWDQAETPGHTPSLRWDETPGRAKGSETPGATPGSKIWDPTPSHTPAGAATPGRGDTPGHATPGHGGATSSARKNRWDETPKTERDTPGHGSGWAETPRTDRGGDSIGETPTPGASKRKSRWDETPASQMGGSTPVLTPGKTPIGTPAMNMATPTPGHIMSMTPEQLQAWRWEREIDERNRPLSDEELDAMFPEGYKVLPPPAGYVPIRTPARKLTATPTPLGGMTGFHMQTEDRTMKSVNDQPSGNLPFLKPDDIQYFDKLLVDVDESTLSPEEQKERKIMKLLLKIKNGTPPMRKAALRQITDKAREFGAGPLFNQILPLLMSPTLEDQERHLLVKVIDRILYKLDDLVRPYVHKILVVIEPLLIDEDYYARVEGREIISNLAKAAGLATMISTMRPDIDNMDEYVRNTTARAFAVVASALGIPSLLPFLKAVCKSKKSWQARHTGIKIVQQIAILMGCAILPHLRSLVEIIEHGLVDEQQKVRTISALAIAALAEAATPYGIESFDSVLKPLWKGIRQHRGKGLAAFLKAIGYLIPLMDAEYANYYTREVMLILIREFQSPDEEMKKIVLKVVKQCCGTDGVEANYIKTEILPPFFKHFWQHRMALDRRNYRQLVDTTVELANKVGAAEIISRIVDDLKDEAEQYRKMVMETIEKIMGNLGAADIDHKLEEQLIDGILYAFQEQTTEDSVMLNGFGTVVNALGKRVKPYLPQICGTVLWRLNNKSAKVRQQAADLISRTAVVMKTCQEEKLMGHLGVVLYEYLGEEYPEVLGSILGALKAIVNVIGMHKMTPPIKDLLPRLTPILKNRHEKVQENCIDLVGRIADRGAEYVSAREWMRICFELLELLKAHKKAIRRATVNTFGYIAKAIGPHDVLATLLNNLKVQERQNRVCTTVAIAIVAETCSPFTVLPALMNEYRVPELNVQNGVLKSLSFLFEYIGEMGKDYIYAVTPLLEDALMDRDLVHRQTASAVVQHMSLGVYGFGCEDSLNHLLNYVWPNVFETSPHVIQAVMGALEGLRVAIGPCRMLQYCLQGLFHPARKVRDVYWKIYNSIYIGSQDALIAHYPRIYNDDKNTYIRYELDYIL
# UniProt O43143: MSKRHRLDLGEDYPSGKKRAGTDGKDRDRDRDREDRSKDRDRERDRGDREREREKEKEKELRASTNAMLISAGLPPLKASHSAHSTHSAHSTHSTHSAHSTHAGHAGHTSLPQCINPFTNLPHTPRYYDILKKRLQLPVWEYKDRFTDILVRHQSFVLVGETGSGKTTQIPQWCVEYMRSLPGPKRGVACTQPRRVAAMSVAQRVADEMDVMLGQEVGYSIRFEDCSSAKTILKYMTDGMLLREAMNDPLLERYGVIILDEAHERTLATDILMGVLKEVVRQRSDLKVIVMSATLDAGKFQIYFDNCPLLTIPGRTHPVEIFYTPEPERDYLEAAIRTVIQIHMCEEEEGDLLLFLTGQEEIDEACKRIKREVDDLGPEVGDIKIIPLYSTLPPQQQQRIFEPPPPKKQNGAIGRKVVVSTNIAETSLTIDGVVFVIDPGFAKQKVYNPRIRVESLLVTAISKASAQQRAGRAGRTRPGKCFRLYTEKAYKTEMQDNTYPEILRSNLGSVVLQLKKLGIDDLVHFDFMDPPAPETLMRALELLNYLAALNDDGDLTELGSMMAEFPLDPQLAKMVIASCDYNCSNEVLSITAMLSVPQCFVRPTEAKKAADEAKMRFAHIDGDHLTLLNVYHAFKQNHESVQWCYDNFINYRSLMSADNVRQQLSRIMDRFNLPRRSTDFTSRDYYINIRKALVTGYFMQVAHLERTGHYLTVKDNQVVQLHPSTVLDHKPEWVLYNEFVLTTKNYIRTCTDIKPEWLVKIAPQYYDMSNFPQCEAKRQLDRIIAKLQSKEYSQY
# These are yes or no findings as the source states them, for the method shown. Some binding calls cover weakened binding; strength is not graded here. For some of these results: Sequences can lack the tags named with a protein.
# T1: Flag-DDX42 (full-length) (human), Q86XP3
# T1 chain: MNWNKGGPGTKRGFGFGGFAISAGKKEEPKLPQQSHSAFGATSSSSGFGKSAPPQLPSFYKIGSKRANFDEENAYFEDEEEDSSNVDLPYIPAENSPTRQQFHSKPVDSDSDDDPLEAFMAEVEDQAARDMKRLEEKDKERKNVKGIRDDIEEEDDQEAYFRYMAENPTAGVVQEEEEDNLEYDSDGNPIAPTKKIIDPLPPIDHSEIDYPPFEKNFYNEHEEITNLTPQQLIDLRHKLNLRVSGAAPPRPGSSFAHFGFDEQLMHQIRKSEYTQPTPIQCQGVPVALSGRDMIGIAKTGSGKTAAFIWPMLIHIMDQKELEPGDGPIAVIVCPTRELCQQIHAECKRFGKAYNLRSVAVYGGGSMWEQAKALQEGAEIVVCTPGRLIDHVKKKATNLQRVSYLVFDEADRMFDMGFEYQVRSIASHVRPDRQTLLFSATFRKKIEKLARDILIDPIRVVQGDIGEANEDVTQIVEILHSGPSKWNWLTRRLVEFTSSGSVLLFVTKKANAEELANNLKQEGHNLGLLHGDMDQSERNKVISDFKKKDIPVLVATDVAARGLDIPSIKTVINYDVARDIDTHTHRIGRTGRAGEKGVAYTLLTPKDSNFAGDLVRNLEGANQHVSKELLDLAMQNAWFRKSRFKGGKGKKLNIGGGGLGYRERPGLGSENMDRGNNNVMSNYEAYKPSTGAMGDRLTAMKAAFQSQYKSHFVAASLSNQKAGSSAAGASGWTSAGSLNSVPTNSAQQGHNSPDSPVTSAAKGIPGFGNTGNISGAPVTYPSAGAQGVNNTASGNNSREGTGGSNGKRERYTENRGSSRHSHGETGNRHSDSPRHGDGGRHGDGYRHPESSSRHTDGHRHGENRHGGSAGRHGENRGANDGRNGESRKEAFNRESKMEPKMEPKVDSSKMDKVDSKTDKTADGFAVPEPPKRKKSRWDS
# Tests used:
# [1] = biological target: SF3B1 (endogenous, HEK293F, in the DDX42-U2 complex) (human (endogenous in HEK293F)) (UniProt O75533); test: cryo-EM structure; DDX42-U2 complex: Flag-DDX42 expressed in HEK293F, anti-Flag selection of endogenous complexes, glycerol gradient with 0–0.1% glutaraldehyde; 2.7 Å
# [2] = biological target: Flag-DHX15 (full-length) (human) (UniProt O43143); test: cryo-EM structure; DHX15-U2 complex purified by Flag-DHX15 from HeLa; reconstruction of about 5 Å; atomic model of 17S U2 snRNP docked into the low-pass filtered map; DHX15 itself not identified in the map
# [3] = biological target: T1, Flag-DDX42 (full-length) (human), Q86XP3; test: cryo-EM structure; DDX42-U2 complex: Flag-DDX42 expressed in HEK293F, anti-Flag selection of endogenous complexes, glycerol gradient with 0–0.1% glutaraldehyde; 2.7 Å; conditions: remark: other sources report otherwise
Binder,binding [2],also measured
"splicing factor TAT-SF1 (endogenous, HEK293F, in the DDX42-U2 complex) (protein, UniProt O43719 1-755) MSGTNLDGNDEFDEQLRMQELYGDGKDGDTQTDAGGEPDSLGQQPTDTPYEWDLDKKAWFPKITEDFIATYQANYGFSNDGASSSTANVEDVHARTAEEPPQEKAPEPTDARKKGEKRKAESGWFHVEEDRNTNVYVSGLPPDITVDEFIQLMSKFGIIMRDPQTEEFKVKLYKDNQGNLKGDGLCCYLKRESVELALKLLDEDEIRGYKLHVEVAKFQLKGEYDASKKKKKCKDYKKKLSMQQKQLDWRPERRAGPSRMRHERVVIIKNMFHPMDFEDDPLVLNEIREDLRVECSKFGQIRKLLLFDRHPDGVASVSFRDPEEADYCIQTLDGRWFGGRQITAQAWDGTTDYQVEETSREREERLRGWEAFLNAPEANRGLRRSDSVSASERAGPSRARHFSEHPSTSKMNAQETATGMAFEEPIDEKKFEKTEDGGEFEEGASENNAKESSPEKEAEEGCPEKESEEGCPKRGFEGSCSQKESEEGNPVRGSEEDSPKKESKKKTLKNDCEENGLAKESEDDLNKESEEEVGPTKESEEDDSEKESDEDCSEKQSEDGSEREFEENGLEKDLDEEGSEKELHENVLDKELEENDSENSEFEDDGSEKVLDEEGSEREFDEDSDEKEEEEDTYEKVFDDESDEKEDEEYADEKGLEAADKKAEEGDADEKLFEESDDKEDEDADGKEVEDADEKLFEDDDSNEKLFDEEEDSSEKLFDDSDERGTLGGFGSVEEGPLSTGSSFILSSDDDDDDI",–,binding [1]: binds
"splicing factor TAT-SF1 (endogenous, HEK293F, in the DDX42-U2 complex), O43719 1-755 (protein) MSGTNLDGNDEFDEQLRMQELYGDGKDGDTQTDAGGEPDSLGQQPTDTPYEWDLDKKAWFPKITEDFIATYQANYGFSNDGASSSTANVEDVHARTAEEPPQEKAPEPTDARKKGEKRKAESGWFHVEEDRNTNVYVSGLPPDITVDEFIQLMSKFGIIMRDPQTEEFKVKLYKDNQGNLKGDGLCCYLKRESVELALKLLDEDEIRGYKLHVEVAKFQLKGEYDASKKKKKCKDYKKKLSMQQKQLDWRPERRAGPSRMRHERVVIIKNMFHPMDFEDDPLVLNEIREDLRVECSKFGQIRKLLLFDRHPDGVASVSFRDPEEADYCIQTLDGRWFGGRQITAQAWDGTTDYQVEETSREREERLRGWEAFLNAPEANRGLRRSDSVSASERAGPSRARHFSEHPSTSKMNAQETATGMAFEEPIDEKKFEKTEDGGEFEEGASENNAKESSPEKEAEEGCPEKESEEGCPKRGFEGSCSQKESEEGNPVRGSEEDSPKKESKKKTLKNDCEENGLAKESEDDLNKESEEEVGPTKESEEDDSEKESDEDCSEKQSEDGSEREFEENGLEKDLDEEGSEKELHENVLDKELEENDSENSEFEDDGSEKVLDEEGSEREFDEDSDEKEEEEDTYEKVFDDESDEKEDEEYADEKGLEAADKKAEEGDADEKLFEESDDKEDEDADGKEVEDADEKLFEDDDSNEKLFDEEEDSSEKLFDDSDERGTLGGFGSVEEGPLSTGSSFILSSDDDDDDI",–,binding [3]: binds

# Now from value to binder, other results behind:
binding [2],Binder,also measured
binds,"TAT-SF1 (endogenous, HeLa, in the DHX15-U2 complex) (protein, UniProt O43719 1-755) MSGTNLDGNDEFDEQLRMQELYGDGKDGDTQTDAGGEPDSLGQQPTDTPYEWDLDKKAWFPKITEDFIATYQANYGFSNDGASSSTANVEDVHARTAEEPPQEKAPEPTDARKKGEKRKAESGWFHVEEDRNTNVYVSGLPPDITVDEFIQLMSKFGIIMRDPQTEEFKVKLYKDNQGNLKGDGLCCYLKRESVELALKLLDEDEIRGYKLHVEVAKFQLKGEYDASKKKKKCKDYKKKLSMQQKQLDWRPERRAGPSRMRHERVVIIKNMFHPMDFEDDPLVLNEIREDLRVECSKFGQIRKLLLFDRHPDGVASVSFRDPEEADYCIQTLDGRWFGGRQITAQAWDGTTDYQVEETSREREERLRGWEAFLNAPEANRGLRRSDSVSASERAGPSRARHFSEHPSTSKMNAQETATGMAFEEPIDEKKFEKTEDGGEFEEGASENNAKESSPEKEAEEGCPEKESEEGCPKRGFEGSCSQKESEEGNPVRGSEEDSPKKESKKKTLKNDCEENGLAKESEDDLNKESEEEVGPTKESEEDDSEKESDEDCSEKQSEDGSEREFEENGLEKDLDEEGSEKELHENVLDKELEENDSENSEFEDDGSEKVLDEEGSEREFDEDSDEKEEEEDTYEKVFDDESDEKEDEEYADEKGLEAADKKAEEGDADEKLFEESDDKEDEDADGKEVEDADEKLFEDDDSNEKLFDEEEDSSEKLFDDSDERGTLGGFGSVEEGPLSTGSSFILSSDDDDDDI",–
binds,"DDX46 (endogenous, HeLa, in the DHX15-U2 complex) (protein, UniProt Q7L014 1-1031) MGRESRHYRKRSASRGRSGSRSRSRSPSDKRSKRGDDRRSRSRDRDRRRERSRSRDKRRSRSRDRKRLRRSRSRERDRSRERRRSRSRDRRRSRSRSRGRRSRSSSPGNKSKKTENRSRSKEKTDGGESSKEKKKDKDDKEDEKEKDAGNFDQNKLEEEMRKRKERVEKWREEQRKKAMENIGELKKEIEEMKQGKKWSLEDDDDDEDDPAEAEKEGNEMEGEELDPLDAYMEEVKEEVKKFNMRSVKGGGGNEKKSGPTVTKVVTVVTTKKAVVDSDKKKGELMENDQDAMEYSSEEEEVDLQTALTGYQTKQRKLLEPVDHGKIEYEPFRKNFYVEVPELAKMSQEEVNVFRLEMEGITVKGKGCPKPIKSWVQCGISMKILNSLKKHGYEKPTPIQTQAIPAIMSGRDLIGIAKTGSGKTIAFLLPMFRHIMDQRSLEEGEGPIAVIMTPTRELALQITKECKKFSKTLGLRVVCVYGGTGISEQIAELKRGAEIIVCTPGRMIDMLAANSGRVTNLRRVTYVVLDEADRMFDMGFEPQVMRIVDNVRPDRQTVMFSATFPRAMEALARRILSKPIEVQVGGRSVVCSDVEQQVIVIEEEKKFLKLLELLGHYQESGSVIIFVDKQEHADGLLKDLMRASYPCMSLHGGIDQYDRDSIINDFKNGTCKLLVATSVAARGLDVKHLILVVNYSCPNHYEDYVHRAGRTGRAGNKGYAYTFITEDQARYAGDIIKALELSGTAVPPDLEKLWSDFKDQQKAEGKIIKKSSGFSGKGFKFDETEQALANERKKLQKAALGLQDSDDEDAAVDIDEQIESMFNSKKRVKDMAAPGTSSVPAPTAGNAEKLEIAKRLALRINAQKNLGIESQDVMQQATNAILRGGTILAPTVSAKTIAEQLAEKINAKLNYVPLEKQEEERQDGGQNESFKRYEEELEINDFPQTARWKVTSKEALQRISEYSEAAITIRGTYFPPGKEPKEGERKIYLAIESANELAVQKAKAEITRLIKEELIRLQNSYQPTNKGRYKVL",–
